Laboratory results from patent US8309790B2, “Animal models for demyelination disorders” (University of Chicago, priority 2005, dated 2012).

Test system: mice with EAE
Assay: EAE, CNS delivery of INF-γ at the recovery stage (doxycycline withdrawn at PID7)
Format: in vivo
Source text: Double transgenic mice that allow for temporally regulated delivery of INF-γ to the CNS (Lin et al., J Neurosci 24:10074-10083 (2004)) were used to assess the role of INF-γ in the pathogenesis of EAE. GFAP/tTA; TRE/IFN-γ double transgenic mice, as described in Example 1 were used to determine the effect of INF-γ on the demyelination caused by EAE. All mice were fed doxycycline from the day of conception to repress the expression of INF-γ, and were immunized with myelin oligodendrocyte protein (MOG35-55) to induce EAE. At day 7 postimmunization (PID7), doxycycline was withdrawn from the experimental group (PID7 DOX−).
The level of INF-γ was determined in the control (DOX+) and the PID7 DOX− mice using an ELISA immunoassay as described in Example 1, and the severity of the disease was assessed as a function of a clinical score. Clinical severity scores were recorded daily according to a 0-5 point scale, where 0=healthy, 1=flaccid tail, 2=ataxia and/or paresis of hind limbs, 3=paralysis of hind limbs and/or paresis of forelimbs, 4=tetraparalysis, and 5=moribund or dead.
The spinal cord from DOX+ and DOX− animals with EAE was immunostained for MBP, and the remyelination of axons was evaluated. The number of oligodendrocytes was determined in the spine from DOX+ and DOX− mice as the number of CC1 positive cells. Axonal damage was evaluated by immunostaining of non-phosphorylated neurofilament-H. Antibodies to non-phosphorylated neurofilament-H were SMI32 diluted to 1:1000 and obtained from Stemberger Monoclonals.
INF-γ is known to induce MHC antigens and activate macrophages and T lymphocytes. The inflammatory effect of INF-γ was studied in the CNS during remyelination by determining the infiltration of T cells and macrophages, and measuring the expression of MHC-1, TNF-a, IL-2, IL-12 and IL-17. Immunohistochemistry was performed in tissues from the DOX+ and DOX− mice with EAE as described in Example 4. Experimental procedures were followed as described in the examples above.

Q: Which “level of INF-γ (ELISA)” value (DOX− mice, PID50) does the source give for interferon-γ [IFN-γ] here?
A: The value was 40.24 pg/mg.

Q: What about the “level of INF-γ (ELISA)” value (both DOX+ and DOX− mice, peak of the disease PID17) of the same substance?
A: Its value is 60 pg/mg.

Q: What about the “level of INF-γ (ELISA)” value (control DOX+ mice, PID50) of the same substance?
A: Its value is 6.22 pg/mg.
